This passage reports binding result and Kd results from article PMC10293810.

The chains behind the UniProt entries cited, without tags or fusion partners. Residues count along the entry.
UniProt Q91XB0, 1-242 R174A/K175A: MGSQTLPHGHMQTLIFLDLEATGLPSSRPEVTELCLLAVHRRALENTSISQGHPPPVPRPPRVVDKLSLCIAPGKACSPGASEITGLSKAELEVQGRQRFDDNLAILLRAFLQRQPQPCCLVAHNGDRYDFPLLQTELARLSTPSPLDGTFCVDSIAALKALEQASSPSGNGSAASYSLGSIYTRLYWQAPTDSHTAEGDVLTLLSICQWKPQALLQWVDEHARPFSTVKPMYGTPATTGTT
UniProt Q91XB0, 1-242: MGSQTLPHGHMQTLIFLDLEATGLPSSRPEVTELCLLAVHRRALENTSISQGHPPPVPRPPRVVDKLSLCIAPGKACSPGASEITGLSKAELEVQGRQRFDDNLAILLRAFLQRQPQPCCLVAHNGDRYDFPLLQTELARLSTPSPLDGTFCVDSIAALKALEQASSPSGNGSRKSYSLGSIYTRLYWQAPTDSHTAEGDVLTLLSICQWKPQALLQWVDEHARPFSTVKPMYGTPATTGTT

For some of these results: No signal at the amounts used counts as a negative. For some of these results: At least one verdict was read from the data and is not stated in words by the source. For some of these results: Tags and fusion partners may be left off the protein sequences shown. For some of these results: For at least one entry, the source does not settle the construct or the ends of the probe. For some of these results: A weaker result is weaker than the reference pair of the same experiment.

For data set [1], the target named is T1, FBF-2 RNA-binding domain (Caenorhabditis elegans) (UniProt Q09312).
T1 sequence (looked up): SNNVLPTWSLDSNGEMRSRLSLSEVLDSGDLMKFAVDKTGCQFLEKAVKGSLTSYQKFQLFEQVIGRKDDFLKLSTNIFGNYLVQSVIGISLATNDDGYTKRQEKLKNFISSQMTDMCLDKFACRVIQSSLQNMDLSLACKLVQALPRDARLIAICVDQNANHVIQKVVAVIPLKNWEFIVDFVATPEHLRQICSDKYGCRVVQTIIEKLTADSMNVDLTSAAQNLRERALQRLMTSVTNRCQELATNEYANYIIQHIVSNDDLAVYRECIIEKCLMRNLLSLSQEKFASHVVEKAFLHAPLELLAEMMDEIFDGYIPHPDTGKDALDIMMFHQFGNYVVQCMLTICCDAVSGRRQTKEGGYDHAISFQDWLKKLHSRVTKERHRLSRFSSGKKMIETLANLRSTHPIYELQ
The data set is described as follows: competition with a labelled probe. Particulars: nonbinding carrier C3; recombinant protein; residues 164-575.

The target of data set [2] is T2, MS2 coat protein V75E,A81G V76E,A82G (MS2 bacteriophage) (UniProt P03612).
T2 sequence (looked up, limits assumed): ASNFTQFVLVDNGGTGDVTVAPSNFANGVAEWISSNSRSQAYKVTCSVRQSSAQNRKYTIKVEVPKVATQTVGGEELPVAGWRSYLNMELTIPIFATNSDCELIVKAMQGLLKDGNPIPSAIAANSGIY
The data set is described as follows: competition with a labelled probe. To be noted: nonbinding carrier C3; recombinant protein.

Data set [3] concerns the target TREX1 R174A,K175A (murine) (UniProt Q91XB0). The data set is described as follows: fluorescence polarization. To be noted: 25 C, apparent Kd; FP with 5 nM ligand at 25 C (some FPCD at 4 C); buffer for MS2-CP (BB6): 100 mM Tris pH 7.5, 10 mM MgCl2, 80 mM KCl, 0.1 mg/mL BSA; recombinant protein; residues 1-242; protein details: MBP fusion, cleaved by protease (similar to WT); label: 5' 6-FAM on both strands.

Data set [4] deals with TREX1 catalytic core (murine) (UniProt Q91XB0). Put plainly: fluorescence polarization. To be noted: higher salt; FP with 5 nM ligand at 25 C (some FPCD at 4 C); buffer for MS2-CP (BB6): 100 mM Tris pH 7.5, 10 mM MgCl2, 80 mM KCl, 0.1 mg/mL BSA; recombinant protein; residues 1-242; protein details: MBP fusion, cleaved by protease; label: 5' 6-FAM on both strands. A general note: Fluorescence polarisation rises when a labelled molecule tumbles more slowly, as on binding a larger partner.

On to AAAAAAAAAA [r(A)10 (C3)], for which the binding result in data set [1] and in data set [2] was “no binding” each time.
In the case of “GAAGTGCCCGTGACGCGCGCGACGCCAGCCGACGAAGGCGGGACCCAGAGCGCGCGCCGT (double strand) [ds-[F]d(N)60]”, the Kd in data set [3] worked out at 130 nM. Moreover, in data set [4], the binding result is “binds more weakly”.
